The results in this text go back to the supplement of paper PMC12819154, “High-throughput peptide-centric local stability assay extends protein–ligand identification to membrane proteins, tissues and bacteria” (Nature Structural & Molecular Biology, 2025).

Protein sequences, listed by entry. Tags and fused reporters are not part of them. Lines headed by an entry give the natural chain unless they say otherwise; changes in a name come on top.
UniProt Q9P2Q2: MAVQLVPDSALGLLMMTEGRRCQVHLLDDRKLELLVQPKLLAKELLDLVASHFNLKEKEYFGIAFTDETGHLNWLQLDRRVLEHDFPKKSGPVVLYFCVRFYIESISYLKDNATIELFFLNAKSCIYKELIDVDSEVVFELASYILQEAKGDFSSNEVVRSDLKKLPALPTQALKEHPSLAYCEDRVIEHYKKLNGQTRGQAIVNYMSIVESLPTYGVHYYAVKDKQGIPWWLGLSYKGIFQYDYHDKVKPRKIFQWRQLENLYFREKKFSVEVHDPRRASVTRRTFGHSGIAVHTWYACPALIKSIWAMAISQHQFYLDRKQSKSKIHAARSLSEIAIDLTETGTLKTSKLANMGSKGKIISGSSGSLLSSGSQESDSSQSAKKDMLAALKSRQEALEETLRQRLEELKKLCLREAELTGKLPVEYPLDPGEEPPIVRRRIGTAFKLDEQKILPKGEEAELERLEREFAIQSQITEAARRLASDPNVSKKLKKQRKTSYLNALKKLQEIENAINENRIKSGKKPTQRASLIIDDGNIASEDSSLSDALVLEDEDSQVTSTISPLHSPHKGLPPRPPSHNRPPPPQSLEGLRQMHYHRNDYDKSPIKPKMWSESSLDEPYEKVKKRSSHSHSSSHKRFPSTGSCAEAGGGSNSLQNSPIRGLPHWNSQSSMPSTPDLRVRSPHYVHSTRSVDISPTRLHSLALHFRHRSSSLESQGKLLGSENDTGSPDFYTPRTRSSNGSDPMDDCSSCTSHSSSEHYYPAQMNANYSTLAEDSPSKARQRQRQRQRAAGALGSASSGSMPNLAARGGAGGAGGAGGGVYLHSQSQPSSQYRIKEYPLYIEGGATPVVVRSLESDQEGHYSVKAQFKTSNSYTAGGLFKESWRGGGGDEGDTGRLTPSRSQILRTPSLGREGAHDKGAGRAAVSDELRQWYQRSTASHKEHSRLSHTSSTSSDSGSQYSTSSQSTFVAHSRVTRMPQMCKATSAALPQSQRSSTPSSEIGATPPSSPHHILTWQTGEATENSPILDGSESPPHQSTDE
UniProt Q9UIQ6, whole entry: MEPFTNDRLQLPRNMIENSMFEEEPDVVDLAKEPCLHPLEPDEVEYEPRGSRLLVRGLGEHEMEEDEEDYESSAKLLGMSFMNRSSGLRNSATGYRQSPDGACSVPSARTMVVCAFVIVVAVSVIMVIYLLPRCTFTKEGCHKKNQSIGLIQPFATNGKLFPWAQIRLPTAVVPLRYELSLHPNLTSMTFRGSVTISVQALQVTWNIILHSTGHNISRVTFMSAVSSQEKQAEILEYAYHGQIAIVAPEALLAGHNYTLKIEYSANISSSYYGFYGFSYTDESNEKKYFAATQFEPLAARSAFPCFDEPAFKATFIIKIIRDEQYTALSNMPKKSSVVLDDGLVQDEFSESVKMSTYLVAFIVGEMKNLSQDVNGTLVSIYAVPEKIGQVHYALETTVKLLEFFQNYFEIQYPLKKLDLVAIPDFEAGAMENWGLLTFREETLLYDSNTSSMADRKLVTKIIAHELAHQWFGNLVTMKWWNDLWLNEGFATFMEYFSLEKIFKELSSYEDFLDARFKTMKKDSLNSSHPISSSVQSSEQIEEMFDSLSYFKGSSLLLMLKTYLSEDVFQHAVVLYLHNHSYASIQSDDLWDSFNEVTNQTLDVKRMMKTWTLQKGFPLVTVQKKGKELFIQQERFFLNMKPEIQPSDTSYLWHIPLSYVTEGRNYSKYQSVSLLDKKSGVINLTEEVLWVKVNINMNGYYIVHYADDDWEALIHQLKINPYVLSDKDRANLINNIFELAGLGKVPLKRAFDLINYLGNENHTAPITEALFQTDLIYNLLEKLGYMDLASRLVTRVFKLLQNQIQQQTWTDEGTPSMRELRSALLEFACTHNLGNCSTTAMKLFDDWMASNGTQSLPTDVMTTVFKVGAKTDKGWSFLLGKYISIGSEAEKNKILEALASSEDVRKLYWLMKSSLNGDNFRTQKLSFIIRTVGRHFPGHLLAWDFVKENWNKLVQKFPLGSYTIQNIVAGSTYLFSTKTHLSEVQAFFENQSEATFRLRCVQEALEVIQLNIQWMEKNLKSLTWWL
UniProt Q9UEE9, whole entry: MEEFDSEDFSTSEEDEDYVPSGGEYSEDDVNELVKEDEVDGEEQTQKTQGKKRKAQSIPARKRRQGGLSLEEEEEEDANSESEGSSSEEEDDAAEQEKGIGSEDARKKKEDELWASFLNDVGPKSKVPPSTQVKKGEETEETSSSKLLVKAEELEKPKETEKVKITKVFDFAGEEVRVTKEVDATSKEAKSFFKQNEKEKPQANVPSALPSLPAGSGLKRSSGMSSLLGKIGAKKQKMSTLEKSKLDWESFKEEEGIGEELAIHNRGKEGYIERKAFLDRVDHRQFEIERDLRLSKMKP
UniProt Q9UJT0: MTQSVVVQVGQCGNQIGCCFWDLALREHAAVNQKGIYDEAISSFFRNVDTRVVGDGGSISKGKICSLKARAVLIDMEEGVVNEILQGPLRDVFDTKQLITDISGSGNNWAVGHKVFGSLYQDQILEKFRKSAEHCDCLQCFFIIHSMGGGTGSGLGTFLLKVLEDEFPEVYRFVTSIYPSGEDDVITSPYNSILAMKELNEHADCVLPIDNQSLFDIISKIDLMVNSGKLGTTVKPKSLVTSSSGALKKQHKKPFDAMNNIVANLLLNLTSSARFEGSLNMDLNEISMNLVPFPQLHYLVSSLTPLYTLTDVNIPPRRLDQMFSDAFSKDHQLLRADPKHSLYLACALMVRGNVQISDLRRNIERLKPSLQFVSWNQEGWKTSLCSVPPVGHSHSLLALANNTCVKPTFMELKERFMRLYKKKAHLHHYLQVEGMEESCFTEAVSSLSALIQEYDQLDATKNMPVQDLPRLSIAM
UniProt Q9P032: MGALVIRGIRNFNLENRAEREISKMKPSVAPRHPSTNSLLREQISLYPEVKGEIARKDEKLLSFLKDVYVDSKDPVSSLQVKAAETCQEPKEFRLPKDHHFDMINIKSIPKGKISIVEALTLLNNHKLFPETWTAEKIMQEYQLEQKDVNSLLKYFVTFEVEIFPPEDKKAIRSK
UniProt Q9UBL3, whole entry: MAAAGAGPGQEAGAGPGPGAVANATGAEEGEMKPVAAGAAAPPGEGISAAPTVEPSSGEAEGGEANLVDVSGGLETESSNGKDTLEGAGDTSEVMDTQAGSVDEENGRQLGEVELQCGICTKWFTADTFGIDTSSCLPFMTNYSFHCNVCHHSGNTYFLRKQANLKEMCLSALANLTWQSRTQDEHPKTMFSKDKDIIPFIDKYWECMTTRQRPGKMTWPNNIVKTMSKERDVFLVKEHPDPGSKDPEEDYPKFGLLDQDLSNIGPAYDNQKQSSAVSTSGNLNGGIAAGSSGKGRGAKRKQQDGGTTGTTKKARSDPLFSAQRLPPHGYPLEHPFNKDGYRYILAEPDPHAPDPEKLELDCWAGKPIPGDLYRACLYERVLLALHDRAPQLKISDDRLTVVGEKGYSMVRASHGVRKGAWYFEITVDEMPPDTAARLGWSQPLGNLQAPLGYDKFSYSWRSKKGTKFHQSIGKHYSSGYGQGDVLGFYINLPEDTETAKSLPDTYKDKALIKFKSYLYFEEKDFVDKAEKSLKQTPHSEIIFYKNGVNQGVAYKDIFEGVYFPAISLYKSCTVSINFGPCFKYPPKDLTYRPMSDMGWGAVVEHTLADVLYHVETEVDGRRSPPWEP
UniProt Q9P0N9: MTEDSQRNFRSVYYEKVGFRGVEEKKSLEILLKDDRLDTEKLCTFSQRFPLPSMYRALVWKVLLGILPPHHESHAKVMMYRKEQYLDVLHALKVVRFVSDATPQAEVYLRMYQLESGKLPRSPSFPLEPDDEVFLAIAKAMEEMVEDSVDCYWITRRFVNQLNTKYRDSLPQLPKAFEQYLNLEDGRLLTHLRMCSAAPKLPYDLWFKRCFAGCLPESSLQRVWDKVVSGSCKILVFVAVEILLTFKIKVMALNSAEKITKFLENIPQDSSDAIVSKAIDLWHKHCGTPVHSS
UniProt Q9UHQ4: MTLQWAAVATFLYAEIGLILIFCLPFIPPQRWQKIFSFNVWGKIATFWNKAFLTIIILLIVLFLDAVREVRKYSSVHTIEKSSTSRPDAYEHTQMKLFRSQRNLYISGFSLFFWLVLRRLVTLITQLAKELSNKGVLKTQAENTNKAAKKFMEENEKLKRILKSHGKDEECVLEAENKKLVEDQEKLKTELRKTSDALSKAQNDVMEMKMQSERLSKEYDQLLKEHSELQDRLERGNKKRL
UniProt Q9P0T7: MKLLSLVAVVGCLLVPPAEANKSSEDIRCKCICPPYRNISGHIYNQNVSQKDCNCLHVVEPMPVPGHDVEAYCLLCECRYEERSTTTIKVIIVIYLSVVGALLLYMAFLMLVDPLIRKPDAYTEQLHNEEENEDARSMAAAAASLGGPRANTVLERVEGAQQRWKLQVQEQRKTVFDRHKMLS
UniProt Q9UG56: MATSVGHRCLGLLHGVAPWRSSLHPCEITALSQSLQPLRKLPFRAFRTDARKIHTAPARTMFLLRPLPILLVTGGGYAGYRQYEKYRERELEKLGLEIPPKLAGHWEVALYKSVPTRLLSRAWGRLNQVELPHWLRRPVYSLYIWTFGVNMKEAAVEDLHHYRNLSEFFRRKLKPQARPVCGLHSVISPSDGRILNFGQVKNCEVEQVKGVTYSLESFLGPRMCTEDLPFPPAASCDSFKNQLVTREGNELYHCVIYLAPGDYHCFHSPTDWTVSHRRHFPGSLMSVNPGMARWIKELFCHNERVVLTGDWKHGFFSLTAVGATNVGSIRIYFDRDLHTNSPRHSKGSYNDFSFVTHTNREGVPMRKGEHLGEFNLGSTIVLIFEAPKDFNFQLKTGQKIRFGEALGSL
UniProt Q9UII2: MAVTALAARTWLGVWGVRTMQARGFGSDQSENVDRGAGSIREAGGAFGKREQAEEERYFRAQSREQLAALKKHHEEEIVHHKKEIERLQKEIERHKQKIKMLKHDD
UniProt Q9UBC1: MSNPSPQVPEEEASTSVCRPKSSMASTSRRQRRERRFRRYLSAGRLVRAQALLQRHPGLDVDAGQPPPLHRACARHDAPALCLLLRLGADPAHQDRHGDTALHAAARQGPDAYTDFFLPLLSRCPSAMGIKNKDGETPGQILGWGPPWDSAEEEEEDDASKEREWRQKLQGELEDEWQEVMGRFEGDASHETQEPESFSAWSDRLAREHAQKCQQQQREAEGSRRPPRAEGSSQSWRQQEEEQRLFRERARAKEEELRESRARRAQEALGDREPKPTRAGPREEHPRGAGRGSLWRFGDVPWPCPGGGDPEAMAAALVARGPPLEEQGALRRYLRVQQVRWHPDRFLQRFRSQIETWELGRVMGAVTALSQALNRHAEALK
UniProt Q9UBN7: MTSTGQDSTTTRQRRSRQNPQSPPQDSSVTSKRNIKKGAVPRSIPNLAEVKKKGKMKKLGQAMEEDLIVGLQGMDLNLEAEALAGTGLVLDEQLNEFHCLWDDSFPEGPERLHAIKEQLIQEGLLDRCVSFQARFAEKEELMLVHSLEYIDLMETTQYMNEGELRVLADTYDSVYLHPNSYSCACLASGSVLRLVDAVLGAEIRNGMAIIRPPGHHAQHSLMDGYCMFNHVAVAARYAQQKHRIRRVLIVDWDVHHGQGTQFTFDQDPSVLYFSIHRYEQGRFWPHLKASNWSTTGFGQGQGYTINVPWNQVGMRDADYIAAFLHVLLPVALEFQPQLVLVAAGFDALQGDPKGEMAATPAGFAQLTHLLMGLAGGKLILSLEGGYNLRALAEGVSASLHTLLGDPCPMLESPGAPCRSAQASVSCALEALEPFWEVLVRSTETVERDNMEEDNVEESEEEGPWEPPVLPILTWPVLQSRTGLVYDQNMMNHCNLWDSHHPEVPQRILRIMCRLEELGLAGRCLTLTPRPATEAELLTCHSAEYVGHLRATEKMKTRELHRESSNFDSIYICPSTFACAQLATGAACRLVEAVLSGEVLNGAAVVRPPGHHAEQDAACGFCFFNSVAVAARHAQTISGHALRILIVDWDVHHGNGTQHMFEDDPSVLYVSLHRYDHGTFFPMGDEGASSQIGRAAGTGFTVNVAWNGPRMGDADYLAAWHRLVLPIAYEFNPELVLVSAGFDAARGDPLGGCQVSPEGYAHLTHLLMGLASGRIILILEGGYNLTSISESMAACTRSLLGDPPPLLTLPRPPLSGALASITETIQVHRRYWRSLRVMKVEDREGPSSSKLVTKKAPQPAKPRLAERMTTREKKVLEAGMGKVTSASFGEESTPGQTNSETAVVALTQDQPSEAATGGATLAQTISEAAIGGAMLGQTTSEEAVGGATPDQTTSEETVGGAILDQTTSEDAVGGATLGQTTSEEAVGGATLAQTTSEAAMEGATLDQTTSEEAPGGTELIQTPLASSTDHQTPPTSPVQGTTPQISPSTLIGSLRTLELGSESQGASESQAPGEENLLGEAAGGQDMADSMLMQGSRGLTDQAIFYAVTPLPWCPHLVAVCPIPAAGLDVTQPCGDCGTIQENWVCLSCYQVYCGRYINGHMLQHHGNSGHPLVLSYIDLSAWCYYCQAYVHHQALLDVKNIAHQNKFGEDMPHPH

Some of the results follow. Most values lie at the level of the controls, where differences are scatter.

Compound in the assay: CN[C@@H]1C[C@H]2O[C@@](C)([C@@H]1OC)n1c3ccccc3c3c4c(c5c6ccccc6n2c5c31)C(=O)NC4 [staurosporine]
The experiment in a line: log2 fold change of tryptic peptide abundance, ligand vs vehicle (limited proteolysis) (log2 ratio); higher = more trypsin-susceptible (destabilized). The following applies: ligand concentration: 20 uM; sample: K562 cleared lysate; digestion: 4 min, 22 C (HT-PELSA RT4min, Orbitrap Astral).
As for “TUBGCP4 (peptide sequence: VEILPSYIPVR, peptide start residue: 261) (UniProt Q9UGJ1)”, the log2 fold change amounted to 0.111.
The figure for “GMPR2 (peptide sequence: YAGGVAEYR, peptide start residue: 278) (UniProt Q9P2T1)” is -0.147; for “LEF1 (peptide sequence: QEHPHTDSDLMHVKPQHEQR, peptide start residue: 270) (UniProt Q9UJU2)” it is -0.455; for “UniProt Q9P202 (peptide sequence: RPLDAHLALVNQHPIGPFPR, peptide start residue: 663)” it is 0.183.
The figure for “UniProt Q9P2Q2 (peptide sequence: IKEYPLYIEGGATPVVVR, peptide start residue: 834)” is -0.355; for “LNPEP (peptide sequence: LLGMSFMNR, peptide start residue: 76) (UniProt Q9UIQ6)” it is 0.0865.
The same measure for “CFDP1 (peptide sequence: EDELWASFLNDVGPK, peptide start residue: 110) (UniProt Q9UEE9)”: -0.294.
Regarding “MLX (peptide sequence: KQEEEVSTLRK, peptide start residue: 193) (UniProt Q9UH92)”, the log2 fold change stood at 0.0763.
The figure for “DTL (peptide sequence: GSVSSVSPKPPSSFK, peptide start residue: 484) (UniProt Q9NZJ0)” is 0.285.
As to “TUBE1 (peptide sequence: NMPVQDLPR, peptide start residue: 462) (UniProt Q9UJT0)”, the log2 fold change turned out to be 0.35.
The figure for “COMMD3 (peptide sequence: NSLEILLGSIGR, peptide start residue: 109) (UniProt Q9UBI1)” is -0.253.
The same measure for “UniProt Q9P032 (peptide sequence: IMQEYQLEQK, peptide start residue: 138)”: 0.879.
The figure for “ASH2L (peptide sequence: EHPDPGSKDPEEDYPK, peptide start residue: 238) (UniProt Q9UBL3)” is 0.326.
As to “MBD2 (peptide sequence: QTASIFKQPVTK, peptide start residue: 103) (UniProt Q9UBB5)”, the log2 fold change turned out to be 0.39.
The same measure for “TBC1D7 (peptide sequence: MYQLESGKLPR, peptide start residue: 111) (UniProt Q9P0N9)”: -0.162; for “BCAP29 (peptide sequence: KLVEDQEK, peptide start residue: 179) (UniProt Q9UHQ4)”: 0.38; for “UBP1 (peptide sequence: TSAFIQVHCISTEFTPR, peptide start residue: 180) (UniProt Q9NZI7)”: 0.235.
The figure for “ZMYM5 (peptide sequence: QLYGSSNTLLK, peptide start residue: 444) (UniProt Q9UJ78)” is 0.218.
The figure for “BAZ2A (peptide sequence: KGDNDEFLLLCDGCDR, peptide start residue: 1684) (UniProt Q9UIF9)” is -0.787.
Take “TMEM9 (peptide sequence: SMAAAAASLGGPR, peptide start residue: 137) (UniProt Q9P0T7)”: the log2 fold change stood at 0.135.
The same measure for “NXF1 (peptide sequence: GEIPEVAFMK, peptide start residue: 610) (UniProt Q9UBU9)”: 0.206; for “HMG20B (peptide sequence: LHGAIERDPAQHEK, peptide start residue: 287) (UniProt Q9P0W2)”: 0.273; for “MRPL27 (peptide sequence: KMEGHYVHAGNIIATQR, peptide start residue: 55) (UniProt Q9P0M9)”: 0.313.
The figure for “CPSF2 (peptide sequence: AKDAELAWIDGVLDMR, peptide start residue: 623) (UniProt Q9P2I0)” is 0.36; for “PISD (peptide sequence: VVLTGDWK, peptide start residue: 305) (UniProt Q9UG56)” it is 0.278; for “UniProt Q9UII2 (peptide sequence: EQAEEER, peptide start residue: 51)” it is -0.151.
The same measure for “GGA2 (peptide sequence: NLVKEEQEKSEK, peptide start residue: 216) (UniProt Q9UJY4)”: -0.269; for “HECA (peptide sequence: NAHFDYSPAGLAVHR, peptide start residue: 319) (UniProt Q9UBI9)”: -0.0971; for “ZNF580 (peptide sequence: AEGPSSTPSSAAGPRPPR, peptide start residue: 32) (UniProt Q9UK33)”: 0.29.
For “UniProt Q9UBC1 (peptide sequence: AQEALGDREPKPTR, peptide start residue: 265)”, the log2 fold change was 0.464.
The figure for “HSPBP1 (peptide sequence: GQREEVEQMK, peptide start residue: 85) (UniProt Q9NZL4)” is 0.803.
The same measure for “BICRA (peptide sequence: RVSPSAEMVMIDR, peptide start residue: 1165) (UniProt Q9NZM4)”: 0.546; for “HDAC6 (peptide sequence: HAQTISGHALR, peptide start residue: 632) (UniProt Q9UBN7)”: 0.328; for “RPUSD1 (peptide sequence: VTISHAIGR, peptide start residue: 112) (UniProt Q9UJJ7)”: 0.391.
With “PARP2 (peptide sequence: VNNGNTAPEDSSPAKK, peptide start residue: 23) (UniProt Q9UGN5)”, the log2 fold change was 0.548.
Take “EVL (peptide sequence: SPLQSQPHSR, peptide start residue: 354) (UniProt Q9UI08)”: the log2 fold change amounted to 0.207.
